From publication doi:10.1101/2025.02.11.637442
These are yes or no findings as the source states them, for the method shown. In cells and extracts the contact can be indirect. Some results given as binding are weak or reduced against the parent protein; the word gives no strength.

Chains of the proteins cited; added tags and fusions are not shown.
UniProt P20963: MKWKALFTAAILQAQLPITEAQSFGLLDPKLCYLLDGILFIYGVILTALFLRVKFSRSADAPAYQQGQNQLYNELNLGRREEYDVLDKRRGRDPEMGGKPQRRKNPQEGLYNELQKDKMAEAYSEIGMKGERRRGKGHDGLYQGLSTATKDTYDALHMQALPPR
UniProt P43403: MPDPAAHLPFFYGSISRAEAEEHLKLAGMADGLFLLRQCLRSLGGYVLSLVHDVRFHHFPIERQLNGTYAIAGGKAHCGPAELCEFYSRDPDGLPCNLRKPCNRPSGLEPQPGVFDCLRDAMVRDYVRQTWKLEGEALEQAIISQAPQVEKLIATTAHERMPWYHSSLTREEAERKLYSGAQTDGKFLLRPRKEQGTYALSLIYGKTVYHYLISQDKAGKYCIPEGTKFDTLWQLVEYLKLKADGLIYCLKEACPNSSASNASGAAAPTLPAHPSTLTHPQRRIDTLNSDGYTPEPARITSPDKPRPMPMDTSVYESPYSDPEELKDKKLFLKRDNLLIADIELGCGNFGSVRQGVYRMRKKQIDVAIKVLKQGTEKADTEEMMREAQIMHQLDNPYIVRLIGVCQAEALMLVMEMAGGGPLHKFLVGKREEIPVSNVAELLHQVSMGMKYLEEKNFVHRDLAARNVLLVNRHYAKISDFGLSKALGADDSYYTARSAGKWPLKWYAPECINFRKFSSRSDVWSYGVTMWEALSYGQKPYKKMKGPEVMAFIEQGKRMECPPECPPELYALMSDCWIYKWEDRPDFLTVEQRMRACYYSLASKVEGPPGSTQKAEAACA

Target: CD3ζ (human (endogenous in primary T cells)) (UniProt P20963)
Test: proximity ligation

binding: binds
Substance: ZAP70 (from UniProt P43403 1-619) (enzyme)
